Two molecules from article doi:10.1101/2025.02.12.637814 can be followed below.

Chains of the proteins cited; added tags and fusions are not shown. Lines headed by an entry give the natural chain unless they say otherwise; changes in a name come on top.
UniProt Q5SMQ9: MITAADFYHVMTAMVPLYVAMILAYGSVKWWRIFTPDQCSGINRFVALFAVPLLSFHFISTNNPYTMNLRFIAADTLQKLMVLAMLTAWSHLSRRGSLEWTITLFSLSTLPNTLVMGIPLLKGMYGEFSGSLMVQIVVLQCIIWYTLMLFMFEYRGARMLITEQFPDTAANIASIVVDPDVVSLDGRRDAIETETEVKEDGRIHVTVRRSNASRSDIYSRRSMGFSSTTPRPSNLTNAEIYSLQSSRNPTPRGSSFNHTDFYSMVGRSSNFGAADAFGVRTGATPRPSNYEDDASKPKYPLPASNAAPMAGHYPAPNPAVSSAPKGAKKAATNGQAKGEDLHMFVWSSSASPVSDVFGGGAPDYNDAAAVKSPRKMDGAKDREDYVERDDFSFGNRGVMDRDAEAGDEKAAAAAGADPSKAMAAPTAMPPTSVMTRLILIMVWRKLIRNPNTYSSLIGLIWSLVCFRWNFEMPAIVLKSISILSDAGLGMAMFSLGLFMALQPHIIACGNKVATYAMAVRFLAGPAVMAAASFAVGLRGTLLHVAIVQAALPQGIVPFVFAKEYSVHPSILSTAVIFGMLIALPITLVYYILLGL

Test [1] has as its target hydrophilic loop (HL) domain of wild-type PIN1A, 6X-His tagged (rice) (UniProt Q5SMQ9). Description: pull-down.
The target in test [2] is hydrophilic loop (HL) domain of wild-type PIN1A, BiFC construct (rice) (UniProt Q5SMQ9). Nature of the test: split reporter.

Results are given in words; binding and its absence hold for the method and conditions named. In cells and extracts the contact can be indirect. Binding can be weak; no strength is given.

B1: MAP Kinase 3 (MPK3), protein used in the in vitro pull-down (enzyme, UniProt Q10N20 1-369)
chain: MDGAPVAEFRPTMTHGGRYLLYDIFGNKFEVTNKYQPPIMPIGRGAYGIVCSVMNFETREMVAIKKIANAFNNDMDAKRTLREIKLLRHLDHENIIGIRDVIPPPIPQAFNDVYIATELMDTDLHHIIRSNQELSEEHCQYFLYQILRGLKYIHSANVIHRDLKPSNLLLNANCDLKICDFGLARPSSESDMMTEYVVTRWYRAPELLLNSTDYSAAIDVWSVGCIFMELINRQPLFPGRDHMHQMRLITEVIGTPTDDELGFIRNEDARKYMRHLPQYPRRTFASMFPRVQPAALDLIERMLTFNPLQRITVEEALDHPYLERLHDIADEPICLEPFSFDFEQKALNEDQMKQLIFNEAIEMNPNIRY
B1: the binding entry in test [1] is reported as “binds”.

B2: MAP Kinase 3 (MPK3), BiFC construct (enzyme, UniProt Q10N20 1-369)
chain: B1 chain
On to B2, for which the binding entry in test [2] is “binds”.
